Test results from PMC7583250, “Type III ATP synthase is a symmetry-deviated dimer that induces membrane curvature through tetramerization” (Nature Communications, 2020).
These are yes or no findings as the source states them, for the method shown. A result given as binding can be weak or reduced; the word gives no strength.

Experiments:
Assay in all cases: cryo-EM structure; native IF1-inhibited ATP synthase dimer purified from T. thermophila mitochondria in digitonin (25 mM Hepes/KOH pH 7.5, 25 mM KCl, 5 mM MgCl2, 0.1% w/v digitonin); 2.7 Å overall, masked refinements 2.5-3.1 Å; both purified
[1] = target: ATPTT9 (Tetrahymena thermophila (endogenous in its mitochondria))
[2] = target: ATPTT5 (Tetrahymena thermophila (endogenous in its mitochondria))
[3] = target: ATP synthase subunit-8 (Tetrahymena thermophila (endogenous in its mitochondria))
[4] = target: ATPTT12 (Tetrahymena thermophila (endogenous in its mitochondria))
[5] = target: ATPTT7 (Tetrahymena thermophila (endogenous in its mitochondria))
[6] = target: ATP synthase Fo subunit c (Tetrahymena thermophila (endogenous in its mitochondria))
[7] = target: ATP synthase subunit-i/j (Tetrahymena thermophila (endogenous in its mitochondria))
[8] = target: ATPTT8 (Tetrahymena thermophila (endogenous in its mitochondria))
[9] = target: ATP synthase subunit d (Tetrahymena thermophila (endogenous in its mitochondria))
[10] = target: ATP synthase subunit-k (Tetrahymena thermophila (endogenous in its mitochondria))
[11] = target: ATPTT6 (Tetrahymena thermophila (endogenous in its mitochondria))

Measured: binding

B1: ATP synthase subunit-a (natural protein, UniProt Q951C1 1-446, looked up)
chain: MGRENVLPVHNDVYEDFVFTTPYFQPESTFKSVPKLFSDILLGGVEWVYTTSESVLAYDYKLWYLWSGVSNLDESFDMFFNQYWALSLSTSVFQLFYAVILDRYLSVLFQNTPYTNDWFRMMLHSKETALIWLYHPELSWHINGLNQFFTYFYGGILEFVYFDKSNPDMCILVHTLWIHLLILFLIFTGFVTILFSFYGNPNTEENTIDSDYLAASGTVEAEKEITSIDDYLGLVFAIAYVFGVFFYVHGWTSMLSHAVLLLSCYSIIIMFLFILGMPTLLLYDFGIFFLAYLKGAGKYISSVAEMMFDYTACLVFYIRILAQWIRVVLMVVTFISLSHYVSDFDITNSALIGSENQSDSMNELNTNFSMTYYILTVLPGKFIYWIYEILHTFFVVCSQFVAFFAIVFWLFLFLYTFFIIEKHEDFFSKKREERKKKLKELWNLKN
notes: ATP synthase subunit a, Tetrahymena thermophila; overall length of 446 amino acids, with 170- and 38-amino acid N- and C-terminal extensions; source: endogenous, purified from T. thermophila mitochondria within the ATP synthase (digitonin, sucrose cushion, Superose 6)
binds: [1] | [2] | [3] | [4] | [5] | [6] | [7] | [8] | [9] | [10] | [11]
